According to patent US5677420A (Kyowa Hakko Kogyo Co., Ltd., priority 1995, dated 1997):

Assay: general procedure: Fmoc solid-phase peptide synthesis; Rink amide-resin or Rink amide-MBHA-resin (Carbiochem-Novabiochem Japan, Inc.); PyBOP/HOBt/NMM
Details: whole synthesis, scale 50 mg resin

| Substance | crude mass | isolated mass |
| --- | --- | --- |
| Ac-Leu-Tyr-Arg-Lys-Met-Arg-Leu-Arg-Tyr-Pro-Val-Add-NH2 | 22.3 mg | 3.9 mg |
| Ac-Leu-Tyr-Arg-Lys-Met-Arg-Leu-Arg-Tyr-Pro-Val-Ahp-NH2 | 20.0 mg | 5.0 mg |
| Ac-Leu-Tyr-Arg-Lys-Met-Arg-Leu-Arg-Tyr-Pro-Val-Ape-NH2 | 36.5 mg | 6.3 mg |
| Ac-Leu-Tyr-Arg-Lys-Met-Arg-Leu-Arg-Tyr-Pro-Val-Aud-NH2 | 43.1 mg | 13.1 mg |
| C3 H7 CO-Leu-Tyr-Arg-Lys-Met-Arg-Leu-Arg-Tyr-Pro-Val-Add-NH2 | 35.3 mg | 26.4 mg |
| CH3 (CH2)16 CO-Leu-Tyr-Arg-Lys-Met-Arg-Leu-Arg-Tyr-Pro-Val-Add-NH2 | 45.8 mg | 30.8 mg |
| PEPTIDE1{[ac].L.Y.R.K.M.R.L.R.Y.P.V.[Ahx].[am]}$$$$V2.0 | 40.0 mg | 13.9 mg |
| PEPTIDE1{[ac].L.Y.R.K.M.R.L.R.Y.P.V.[Aoc].[am]}$$$$V2.0 | 37.8 mg | 10.3 mg |

Strings that start with PEPTIDE1 are HELM notation: dots part the residues, brackets hold end groups and non-standard residues.
